No constants are given. Whether binding was seen depends on the method and setting.
How the values were obtained:
Assay in all cases: BLI + other: solid-phase binding assay; Supplementary Fig. 3; which of the two methods was used for which receptor is not told in the text shown
[1] = biological target: UNC5A ectodomain
[2] = biological target: UNC5C ectodomain
[3] = biological target: UNC5D ectodomain

Measured: binding

B1: full-length Net4 (Net4-FL) (natural protein, Mus musculus, UniProt Q9JI33 20-628, looked up)
chain: LNGVAGANSRCEKACNPRMGNLALGRKLRADTMCGQNATELFCFYSENADLTCRQPKCDKCNAAHSHLAHPPSAMADSSFRFPRTWWQSAEDVHREKIQLDLEAEFYFTHLIMVFKSPRPAAMVLDRSQDFGKTWKPYKYFATNCSATFGLEDDVVKKGAICTSRYSNPFPCTGGEVIFRALSPPYDIENPYSAKVQEQLKITNLRVRLLKRQSCPCQINDLNAKPHHFMHYAVYDFIVKGSCFCNGHADQCLPVEGFRPIKAPGAFHVVHGRCMCKHNTAGSHCQHCAPLYNDRPWEAADGRTGAPNECRTCKCNGHADTCHFDVNVWEASGNRSGGVCNNCQHNTEGQHCQRCKPGFYRDLRRPFSAPDACKACSCHPVGSAILPFSSVTFCDPSNGDCPCKPGVAGPHCDRCMVGYWGFGDYGCRPCDCAGSCDPLTGDCISSNADVDWYHEVPAFHSMHNKSEPSWEWEDEQGFSALRHSGKCECKEQVLGNPKAFCGMKYSYVLKIKILSAHDKGSHAEVNVKIKKVLKSTKLKILRGKRTLYPESWTNRGCTCPILNPGLEYLVAGHEDVRTGKLIVNMKSFVQHWKPALGRRVMHILKRDCV
notes: also called netrin-4; wild-type Net4; source: HEK293, stably transfected, purified (streptactin-sepharose, thrombin digestion, SEC); not shown: double Strep II, N-terminal, cleaved
no binding: [1] | [2] | [3]
